PubChem BioAssay AID1259254 | NCATS | 2017
This is a random part of about 59,000 deposited reagents. Of all reagents, about 1,550 (2.6%) were called active. 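G2 share is only a proxy for re-replication; each gene was hit by three separate siRNAs, and active genes were retested.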 A number with no mark means an inactive call. Reagents against one gene are numbered here. Not all columns of the deposit are shown. Not stated in the record: the amount of reagent.

Test: 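Gene knock-downs that lead to re-replication, shown by excess G2 DNA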 (primary screen)
Cells: human HCT116 colorectal cancer cells
Reagent: single siRNA against human genes
Duration: 3 days
Detection: 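Imaged Hoechst DNA stain sorts each cell into a cycle phase by DNA amount; per plate, G2 fraction set to 0% for non-targeting and 100% for GMNN siRNA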
Scale: G2 robust z-score: higher = more G2 cells, more excess DNA replication
Call rule: 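An siRNA counts as active if its G2 robust z-score lies at least 5 MADs above the screen median; here such calls match roughly 38% of GMNN control or more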

no.	target gene	reagent	G2 robust z-score
1	EPHX3	1	5.55 (active)
2	EPHX3	2	2.35
3	EPHX3	3	-0.542
4	ENPP4	1	1.95
5	ENPP4	2	0.478
6	ENPP4	3	-0.9
7	GSC	1	-0.251
8	GSC	2	7.94 (active)
9	GSC	3	-0.292
10	ZNF624	1	0.447
11	ZNF624	2	0.423
12	ZNF624	3	-0.488
13	TPT1P8	1	1.7
14	TPT1P8	2	0.693
15	TPT1P8	3	-0.698
16	TWNK	1	-1.96
17	TWNK	2	-0.309
18	TWNK	3	0.105
19	MKX	1	-0.922
20	MKX	2	-0.594
21	MKX	3	0.537

A stretch of the results above, for reference:
no.	target gene	reagent	G2 robust z-score
14	TPT1P8	2	0.693
15	TPT1P8	3	-0.698
16	TWNK	1	-1.96
17	TWNK	2	-0.309
18	TWNK	3	0.105
19	MKX	1	-0.922

Next results follow:
no.	target gene	reagent	G2 robust z-score
22	PLXNA4	1	0.0803
23	PLXNA4	2	-0.0609
24	PLXNA4	3	1.7
25	CYLC2	1	-0.0805
26	CYLC2	2	-0.802
27	CYLC2	3	-0.698
28	ZNF75A	1	0.0894
29	ZNF75A	2	2.52
30	ZNF75A	3	0.248
31	ZNF682	1	-1.06
32	ZNF682	2	-0.355
33	ZNF682	3	-0.326
34	FARP2	1	0.492
35	FARP2	2	1.91
36	FARP2	3	-0.401
37	ADNP2	1	-0.855
38	ADNP2	2	-0.804
39	ADNP2	3	-0.49
40	SUSD1	1	2.79
41	SUSD1	2	5.18 (active)
42	SUSD1	3	-0.398
43	SHMT2	1	1.55
44	SHMT2	2	-1.25
45	SHMT2	3	-0.428
46	LIPN	1	-0.14
47	LIPN	2	-0.792
48	LIPN	3	0.456
